The campaign covered roughly 400,000 compounds. About 5,500 (1.4%) were called active. Inconclusive means that the source gave no clear call. Such entries were picked first, then a sample of the others. Calls come from the whole dose curve; as a rule, active = well fitted cell-killing curve with a large enough effect; inconclusive = small, poorly fitted or top-dose-only effect, or effect the other way; inactive = flat fitted curve, though single readings scatter. Where the call is inconclusive, the potency comes from a doubtful curve fit.
Assay: qHTS assay for MDR1-selective chemotherapeutics: Primary screen using the parental adenocarcinoma cell KB-3-1; note: nearly all actives have a fitted effect of over 60% in size
Conditions: KB-3-1 viability, CellTiter-Glo ATP luminescence, 72 h; activity change, negative = cytotoxic: at 46.1 µM (top of the series)
Outline: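 Parental KB-3-1 adenocarcinoma cells in phenol-red-free DMEM with 10% FBS were pin-treated with compounds at several concentrations, incubated 72 h at 37 °C, and viability read by CellTiter-Glo luminescence; concentration-effect curves were fitted after normalization.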
% is set by controls: 0 for no effect and ±100 for the full control effect; potency is the fitted concentration of half-maximal effect.

Row | Structure (SMILES) | activity change, negative = cytotoxic | Potency
1 | Fc1ccc(C2=CC(c3ccc(Br)o3)n3ncnc3N2)cc1 (stereo not drawn) | inactive: 2.05% | 
2 | COc1ccc(C(=O)NNC(=S)NC(=O)c2cc(-c3ccccc3)nc3ccccc23)cc1 |  | inconclusive: 29.1 µM [cytotoxic, single point]
3 | COc1cc(C(=O)NNC(=O)c2ccc3ccccc3n2)cc(OC)c1OC |  | inconclusive: 18.4 µM [cytotoxic, partial curve]
4 | COc1ccc(N2CCN(Cc3cc4c(cc3O)CCC4)CC2)cc1 |  | inconclusive: 29.1 µM [cytotoxic, single point]
5 | Cc1oc2c(cc(NS(=O)(=O)c3ccc(F)cc3)c3ccccc32)c1C(=O)OCc1ccccc1 | inactive: 5.4% | 
6 | CC1CCCN(S(=O)(=O)c2ccc(C(=O)NC(C)c3ccccc3)cc2)C1 (stereo not drawn) | inactive: -0.625% | 
7 | Nc1nc(SCC(=O)N2CCCC2)[nH]c(=O)c1NC(=O)c1cccs1 |  | inconclusive: 9.2 µM [cytotoxic, partial curve, poor fit]
8 | c1ccc(CSc2ccc3nnc(-c4cccnc4)n3n2)cc1 | inactive: 15% | 
9 | O=C(Cn1c(=O)oc2ccccc21)Nc1ccc(S(=O)(=O)N2CCCCC2)cc1 |  | inconclusive: 32.6 µM [rising, single point]
10 | Oc1c(C(Nc2ccccn2)c2cccnc2)cc(Cl)c2cccnc12 (stereo not drawn) |  | inconclusive: 29.1 µM [cytotoxic, single point]
11 | COc1cccc(CNc2ccccc2O)c1OCc1ccccc1F | inactive: -25.6% | 
12 | CC(CCc1ccccc1)NC(=O)c1ccc(NC(=O)c2ccc(Cl)cc2Cl)cc1 (stereo not drawn) | inactive: 6.31% | 
13 | CN1CCN(S(=O)(=O)c2cccc(C(=O)Nc3nc(-c4ccccc4)cs3)c2)CC1 |  | inconclusive: 29.1 µM [cytotoxic, single point]
14 | O=C(c1cccc(F)c1)N1CCN(c2cc(N3CCCCC3)c(F)cc2[N+](=O)[O-])CC1 |  | inconclusive: 18.4 µM [cytotoxic, partial curve, poor fit]
15 | CC(=O)Nc1cccc(-c2ccnc3c2CC(C(=O)NCc2ccc(F)c(F)c2)O3)c1 (stereo not drawn) |  | active: 7.31 µM
16 | O=C(Cn1c(-c2ccccc2)c[n+]2ccsc12)c1ccccc1 |  | inconclusive: 29.1 µM [cytotoxic, single point]
17 | Cc1ccc(Cl)cc1N1CCN(C(=O)C2CCCN(Cc3nc(-c4cccc(Cl)c4)oc3C)C2)CC1 (stereo not drawn) |  | inconclusive: 32.6 µM [cytotoxic, partial curve, poor fit]
18 | Cc1ccc(N2CC(C(=O)Nc3cc(C(F)(F)F)ccc3N3CCCC3)CC2=O)cc1 (stereo not drawn) |  | inconclusive: 29.1 µM [cytotoxic, single point]
19 | Cn1c2c(c3cnc4cc(Cl)ccc4c31)CN(Cc1ccc(Cl)cc1)CC2 | inconclusive: 0% | 
20 | CCC(C(=O)NCCc1ccc(Cl)cc1)n1ccc2cc(S(=O)(=O)N3CCCCC3)ccc21 (stereo not drawn) |  | inconclusive: 11.6 µM [cytotoxic, partial curve, poor fit]
21 | COc1ccc(CCNC(=O)C(=O)NCC(c2cccnc2)N2CCN(c3ccccc3)CC2)cc1 (stereo not drawn) |  | inconclusive: 18.4 µM [cytotoxic, single point]
22 | CC1CCCCN1S(=O)(=O)c1ccc(C(=O)N(CCCN(C)C)c2nc3ccc(Br)cc3s2)cc1 (stereo not drawn) |  | inconclusive: 29.1 µM [cytotoxic, single point]

Row | Structure (SMILES) | activity change, negative = cytotoxic | Potency
23 | O=C(Nc1ccc(CN2CCOCC2)cc1)c1ccc(-c2cccc([N+](=O)[O-])c2)o1 |  | inconclusive: 25.9 µM [cytotoxic, partial curve, poor fit]
24 | CS(=O)(=O)N(Cc1ccc(Cl)cc1)c1ccc(C(=O)NCCSc2ccccn2)cc1 |  | inconclusive: 29.1 µM [cytotoxic, single point]
25 | O=C(C=Cc1ccccc1O)c1ccccc1O |  | inconclusive: 18.4 µM [cytotoxic, single point]
26 | CCn1c(=O)cc(SCC(=O)NCc2ccc(C)cc2)c2ccccc21 |  | inconclusive: 23.1 µM [cytotoxic, single point]
27 | COc1ccc(NC(=O)Cn2cc(C(C)=O)c3ccccc32)cc1 |  | inconclusive: 25.9 µM [cytotoxic, partial curve, poor fit]
28 | COc1cccc(-c2ccc3c(N)c(C(=O)Nc4ccccc4C)sc3n2)c1 | inactive: -5.6% | 
29 | C/C(=N/OC(=O)CC(C)C)c1cc(-c2ccc(Cl)cc2)no1 |  | inconclusive: 23.1 µM [cytotoxic, single point]
30 | Cc1ccc(-c2cc3nc(C)cc(NCc4ccco4)n3n2)cc1 | inactive: 10.1% | 
31 | CC(C)NC(=S)N/N=C/c1ccc(C(C)(C)C)cc1 | inactive: -28% | 
32 | N/C(=N\OC(=O)c1cccc(Cn2cc(C(F)(F)F)ccc2=O)c1)c1ccc(Cl)cc1 | inactive: -0.302% | 
33 | CC(C)c1ccc2[nH]c3nc(SCC(=O)NC4CC4)nnc3c2c1 | inconclusive: -2.72% | 
34 | O=C(NCc1ccccc1)c1cc(=O)nc2sc(-c3ccccc3)nn12 |  | inconclusive: 18.4 µM [rising, partial curve, poor fit]
35 | CCOc1ccc(-c2noc(-c3csc([C@@H]4O[C@H](CO)[C@H](O)[C@H](O)[C@H]4O)n3)n2)cc1 | inactive: 0% | 
36 | CCOc1cc(-c2sc(Nc3ccc(CC)cc3)n[n+]2-c2ccccc2)ccc1OC |  | inconclusive: 16.4 µM [cytotoxic, single point]
37 | O=C(Nc1ccccc1)Nc1cc(OCC(F)(F)F)cc(OCC(F)(F)F)c1 |  | inconclusive: 18.4 µM [cytotoxic, single point]
38 | CCOc1ccc2ccccc2c1C(=O)Nc1cc(=O)n(C)c(=O)n1C | inactive: -17.6% | 
39 | Cc1ccc(OCCC(=O)NNC(=O)c2nn(C)c(=O)c3ccccc23)cc1 |  | inconclusive: 16.4 µM [rising, single point]
40 | CCCC(=O)Nc1ccc2nc(SCc3ccc(C)cc3)sc2c1 | inactive: 1.49% | 
41 | O=Nc1[nH]c(=O)c(/C=C(\O)c2ccccc2)nc1NO |  | inconclusive: 29.1 µM [cytotoxic, partial curve, poor fit]
42 | O=C(COc1ccc(S(=O)(=O)NC2CCCCC2)cc1Cl)Nc1ccc2c(c1)OCO2 |  | inconclusive: 29.1 µM [cytotoxic, single point]
43 | CCc1nnc(NC(=O)c2ccc(-c3ccccc3F)o2)s1 |  | inconclusive: 11.6 µM [rising, partial curve, poor fit]

Part of the list above, set out differently:
Row	Structure (SMILES)	activity change, negative = cytotoxic	Potency
24	CS(=O)(=O)N(Cc1ccc(Cl)cc1)c1ccc(C(=O)NCCSc2ccccn2)cc1		inconclusive: 29.1 µM [cytotoxic, single point]
25	O=C(C=Cc1ccccc1O)c1ccccc1O		inconclusive: 18.4 µM [cytotoxic, single point]

Source: PubChem BioAssay AID1347075 (National Center for Advancing Translational Sciences (NCATS), 2019)
